We go through two sequences from publication PMC12116771.

By UniProt entry, the sequences of proteins in these tests, tags left out. Where a name states a change or a piece, a line headed by the entry shows the natural chain unless it says otherwise.
UniProt P45978: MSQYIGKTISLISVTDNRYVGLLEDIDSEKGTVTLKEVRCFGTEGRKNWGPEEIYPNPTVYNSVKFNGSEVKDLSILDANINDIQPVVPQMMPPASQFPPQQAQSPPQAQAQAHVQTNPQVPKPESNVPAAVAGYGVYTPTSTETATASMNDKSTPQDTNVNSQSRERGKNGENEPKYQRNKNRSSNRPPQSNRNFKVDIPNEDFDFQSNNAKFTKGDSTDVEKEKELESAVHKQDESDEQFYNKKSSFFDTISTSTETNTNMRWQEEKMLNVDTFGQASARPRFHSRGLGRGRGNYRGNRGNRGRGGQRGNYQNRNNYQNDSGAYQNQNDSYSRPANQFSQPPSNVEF

Construct, isoform or probe ends are uncertain for at least one entry. The comparison behind a weaker result is the experiment's own reference, which may not be listed here.

For the series, the target named is Scd6 (His-Scd6-FLAG, unmethylated) (Saccharomyces cerevisiae) (UniProt P45978). The experiment in a line: EMSA. Particulars: 1.7 uM RNA, protein 0.26-1.1 uM, EMSA: 10 mM Tris pH 8, 50 mM NaCl, 0.05% NP-40, 6% glycerol, 1 mM DTT, 2 ug/ml BSA, 0.5 ug/ml tRNA, 30 C 30 min, 2.5% agarose, 1x MOPS, EtBr, recombinant protein, protein details: N-term His, label: none (EtBr stain), probe letters rebuilt from the primers and the genome. Background: A gel shift assay detects complexes by their altered migration in electrophoresis.

Consider “GGGAAAAUUAAACAACGGUGAAAUCAUAGUCAUCGAUUAGUAGCACUUUCAUGCCUGACUACGUCAACUAUUGGAGGCGGUUUAUAAUUUUUAUUUAAAGCACAUAGGAGUUAAUUUUAUUUUACUGGUAGGGUUUGUAUACGAACUACAUGGAAAUGUGGAUGGUGUGUUAUUAUAGCUUAAUGAAUAUUCUUUUUCUAUAC [SRS2 3'UTR 200-mer RNA]”, for which the binding result (shift seen, significantly less than 5'UTR) is recorded as “binds more weakly”.

In the case of “GGGGGCAGAAUAGGGCUCCACUCCGUGCCCAAUUUGACCUGGAUUUUCCACCAGUUUACAUGAAUUUCCCCGCUUACUUUUUGGAAGCACCUUCUUUAGUUCGGGAACUACUAUAUUUGAAGGCAUUGCCAAACCUAUUCACAUUUAAUGACUUUGCUAUCCUAGUAAGACAACGAAGACAAAUUAAAAGGAUCGAAAGUGCA [SRS2 5'UTR 200-mer RNA]”, the binding result (more binding than 3'UTR) is “binds”.
